PubChem BioAssay AID1259283 | Sanger Institute | 2017

- Purpose: 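Kinases whose silencing adds to targeted drugs in killing colon cancer cells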 (primary screen)
- Cells: HT115 colorectal cancer cells
- Reagent: siRNA pool against human genes
- Conditions: anchor drug given one day after siRNA: BYL719 at 1 µM, cetuximab at 5 µg/ml, trametinib at 10 nM, or DMSO vehicle alone
- Measurement: 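Per-drug synergy scores plus replicate-mean viability relative to non-targeting pool #2 wells, also expressed as a robust z-score based on control wells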
- Direction: robust z-score, knock-down alone: higher = more viable cells after knock-down
- Hit rule: 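Essential gene: robust z-score less than -3 with no drug added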
- Calls: active = essential (z below -3, no drug); inactive = no change without drug
The whole screen tested 794 reagents; below is an unselected part. 14 of them (1.8%) were called active. 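Calls reflect only viability loss without drug; drug synergy does not enter the call.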 A number with no mark means an inactive call. Further read-outs or replicates are left out here. Not given: the amount of reagent, the time to read-out.

| gene | robust z-score, knock-down alone |
| --- | --- |
| EFNA3 (ephrin A3) | 0.0589 |
| HUNK (hormonally up-regulated Neu-associated kinase) | -0.962 |
| MGA (MAX dimerization protein MGA) | -2.51 |
| MARK4 (microtubule affinity regulating kinase 4) | 0.611 |
| PRKCB (protein kinase C beta) | 0.288 |
| PIP5K1C (phosphatidylinositol-4-phosphate 5-kinase type 1 gamma) | -0.809 |
| ITPKB (inositol-trisphosphate 3-kinase B) | 0.789 |
| PIP5K1B (phosphatidylinositol-4-phosphate 5-kinase type 1 beta) | 0.789 |
| SPHK1 (sphingosine kinase 1) | 0.789 |
| AXL (AXL receptor tyrosine kinase) | 0.706 |
| PIK3C2G | -1.49 |
| PTK6 (protein tyrosine kinase 6) | 0.185 |
| EPHA5 (EPH receptor A5) | 0.789 |
| PKIA (cAMP-dependent protein kinase inhibitor alpha) | 0.068 |
| PRKCH (protein kinase C eta) | 0.0255 |
| MAP3K9 (mitogen-activated protein kinase kinase kinase 9) | -2.11 |
| TK2 (thymidine kinase 2) | 0.789 |
| NEK6 (NIMA related kinase 6) | 0.789 |
| NUP62 (nucleoporin 62) | -0.731 |
| PRPS1L1 (phosphoribosyl pyrophosphate synthetase 1 like 1) | -0.2 |
| IRAK2 (interleukin 1 receptor associated kinase 2) | 0.284 |
| ATP23 | 0.789 |
| SIK3 (SIK family kinase 3) | 0.789 |
| PLK1 (polo like kinase 1) | -6.94 (active) |
| ALPK3 (alpha kinase 3) | 0.229 |
| RELA (RELA proto-oncogene, NF-kB subunit) | 0.143 |
| MAP3K12 (mitogen-activated protein kinase kinase kinase 12) | 0.784 |
| PI4K2A (phosphatidylinositol 4-kinase type 2 alpha) | 0.789 |
| EXOSC10 (exosome component 10) | -1.02 |
| ACVR1 (activin A receptor type 1) | 0.789 |
| PIP4K2B (phosphatidylinositol-5-phosphate 4-kinase type 2 beta) | -1.59 |
| DLG2 (discs large MAGUK scaffold protein 2) | 0.416 |
| ACVR1B (activin A receptor type 1B) | 0.789 |
| MAP3K13 (mitogen-activated protein kinase kinase kinase 13) | -0.0783 |
| TAB1 (TGF-beta activated kinase 1 (MAP3K7) binding protein 1) | 0.789 |
| PIK3CA | 0.789 |
| KALRN (kalirin RhoGEF kinase) | -0.545 |
| MINK1 (misshapen like kinase 1) | 0.304 |
| EPHA8 (EPH receptor A8) | 0.789 |
| CDKN2D (cyclin dependent kinase inhibitor 2D) | 0.209 |
| SRGAP3 (SLIT-ROBO Rho GTPase activating protein 3) | 0.789 |
| ROR2 (ROR family WNT receptor 2) | 0.789 |
| MLKL (mixed lineage kinase domain like pseudokinase) | -0.861 |
| PFKFB1 (6-phosphofructo-2-kinase/fructose-2,6-biphosphatase 1) | -0.49 |
| PIP5K1A (phosphatidylinositol-4-phosphate 5-kinase type 1 alpha) | 0.202 |
| CLK2 (CDC like kinase 2) | -0.0629 |
| NUP98 (nucleoporin 98 and 96 precursor) | -4.02 (active) |
| ADCK2 (aarF domain containing kinase 2) | -0.0892 |
| RPS6KA5 (ribosomal protein S6 kinase A5) | -0.648 |
| STK4 (serine/threonine kinase 4) | 0.789 |
